{
  "source": "patent US7261901B2",
  "about": "“Vaccine and compositions for the prevention and treatment of neisserial infections” (University of Iowa Research Foundation, priority 2001, dated 2007)",
  "key": {"PLD": {"tested_on": "PLD", "assay": "PLD activity (Amplex Red Phospholipase D Assay Kit) in gonococci, infected cervical cell lysates, fractions and supernatants", "format": "biochemical, N. gonorrhoeae", "method": "(§1) 4. Determination of PLD Activity. PLD activity was accessed using the Amplex™ Red Phospholipase D Assay Kit (Molecular Probes, Eugene Oreg.). Wild-type and PLD mutant gonococci were suspended in PLD assay buffer to a final concentration of 10^7 bacteria ml^−1, and activity was determined according to the manufacturer's protocol. Assessment of PLD activity at acidic pH was determined in a two-step assay according to the manufacturer's protocol. For the first step, 10^8 gonococci were suspended in PBS with the pH adjusted to 3.0, 4.5, or 6.0. Gonococcal suspensions were diluted 10-fold in PLD assay buffer for the second step of the reaction. Cervical cell fractions were prepared as outlined below and PLD activity was assessed at neutral pH according to the manufacturer's protocol.\n5. Fractionation of Primary Cervical Cells. Uninfected (control) and infected cervical cell monolayers were lysed in buffer A (50 mM tris, pH 7.5; 10 mM NaCl, 1 mM KCl; 2 mM MgCl2, 1 mM PMSF) by scraping cervical cells from tissue culture dishes placed on ice. The cell lysate was sonicated (two bursts of 20 seconds each). Cell debris and the nuclear fraction was removed by centrifugation (750×g, 10 minutes), and the supernatant from this spin was then subjected to filtration through a low-protein binding 0.22 μm syringe filter to ensure removal of gonococci. Alternatively, gonococci were removed by immunoprecipitation (as described by Wen et al., 2000) using the monoclonal antibody, 2C3, which recognizes the H.8 outer membrane protein of the pathogenic Neisseria. Sucrose was added to the resulting gonococcus-depleted supernatant (S1) to a final concentration of 300 mM. Ultracentrifugation (150,000×g, 90 minutes) was then performed to produce the plasma membrane-(pellet) and cytosol (supernatant 2, S2)-enriched fractions. The membrane-enriched fraction was resuspended in PLD assay buffer (50 mM Tris, 5 mM CaCl2, pH 8.0). S2 was concentrated by filtration through Centricon YM-30 centrifugal filter units (Millipore) after which cytosolic constituents were recovered in PLD assay buffer. Where indicated, prior to infection studies primary pex and pen cell monolayers were treated with 300 nM wortmannin (Sigma) (2 hours, 37° C.) or 1 μM cytochalasin D (Sigma) (30 minutes, 37° C.) to inhibit macropinocytosis of gonococci. Wortmannin and cytochalasin D were maintained in cervical cell cultures during the course of infection.\nas §1, with “Determination of” for “4. Determination of”, “Assessment of gonococcal PLD activity” for “Assessment of PLD activity”\nFractionation of Primary Cervical Cells. Uninfected (control) and infected cervical cell monolayers were lysed in buffer A (50 mM tris, pH 7.5; 10 mM NaCl, 1 mM KCl; 2 mM MgCl2, 1 mM PMSF) by scraping cervical cells from tissue culture dishes placed on ice. The cell lysate was sonicated (two bursts of 20 seconds each). […] Sucrose was added to the resulting gonococcus-depleted supernatant (S1) to a final concentration of 300 mM. Ultracentrifugation (150,000×g, 90 minutes) was then performed to produce the plasma membrane-(pellet) and cytosol (supernatant 2, S2)-enriched fractions. The membrane-enriched fraction was resuspended in PLD assay buffer (50 mM Tris, 5 mM CaCl2, pH 8.0). […]"}, "[1]": {"tested_on": "primary ectocervical cells", "assay": "Gentamycin-resistance invasion assay of N. gonorrhoeae 1291 with inhibitors of cytoskeletal motility and protein synthesis, ectocervical cells", "format": "cell-based, human", "conditions": "both cell types (endo- and ectocervical)", "method": "Invasion Assays in the Presence of Inhibitors of Cytoskeletal Motility and Protein Synthesis: Cervical cells were passed to 12 mm collagen-coated coverslips as outlined above. Prior to infection with N. gonorrhoeae 1291 wild-type cells, primary cell cultures were left untreated, or they were pre-incubated with 300 nM wortmannin (Sigma), 1 μM cytochalasin D (Sigma), or 400 mM ethylene glycol bis-(2-aminoethyl ether)-N,N, N′, N′ tetraacetic acid ((EGTA) Amresco, Solon, Ohio) for 2 h, 30 min, and 30 min, respectively, or they were pretreated with 100 µg/ml nocodazole (Calbiochem-Novabiochem Corp., La Jolla, Calif.) for 1 h at 4° C. followed by a 30 min incubation at 37° C. The requirement for de novo protein synthesis, either by the bacteria or by the primary cervical cells, was tested by pretreatment (30 min, 37° C.) of the bacterial cultures or cervical cell monolayers with 4 μg/ml chloramphenicol (Sigma) or 25 μM cycloheximide (Calbiochem-Novabiochem Corp.), respectively. […] Percent invasion was determined as a function of the original inoculum and the number of colonies formed with subsequent plating of the cellular lysate. A Kruskal-Wallace ANOVA was used to determine the statistical significance of the calculated percent invasion for each of the cytoskeletal motility inhibitors used with respect to the untreated, infected cell cultures."}},
  "note": "At least one compound was matched to its structure with a doubt left.",
  "data": [
    {"smiles": "COC[C@H]1OC(=O)c2coc3c2[C@@]1(C)C1=C(C3=O)[C@@H]2CCC(=O)[C@@]2(C)C[C@H]1OC(C)=O", "note": "[Wortmannin, wortmannin]", "values": [
      {"measurement": "PLD Activity in Ectocervical Cell Fractions [Mean (variance)]", "setting": "PLD; Cytosolic fraction, 1291ΔPLD infected w/ inhibitor (300 nM wortmannin or 1 μM cytochalasin D)", "value": "0.408 (0.01) Fluorescence Units"},
      {"measurement": "PLD Activity in Ectocervical Cell Fractions [Mean (variance)]", "setting": "PLD; Cytosolic fraction, Uninfected w/ inhibitor (300 nM wortmannin or 1 μM cytochalasin D)", "value": "0.403 (0.01) Fluorescence Units"},
      {"measurement": "PLD Activity in Ectocervical Cell Fractions [Mean (variance)]", "setting": "PLD; Cytosolic fraction, WT 1291 infected w/ inhibitor (300 nM wortmannin or 1 μM cytochalasin D)", "value": "0.413 (0.03) Fluorescence Units"},
      {"measurement": "PLD Activity in Ectocervical Cell Fractions [Mean (variance)]", "setting": "PLD; Membrane fraction, 1291ΔPLD infected w/ inhibitor (300 nM wortmannin or 1 μM cytochalasin D)", "value": "0.418 (0.02) Fluorescence Units"},
      {"measurement": "PLD Activity in Ectocervical Cell Fractions [Mean (variance)]", "setting": "PLD; Membrane fraction, Uninfected w/ inhibitor (300 nM wortmannin or 1 μM cytochalasin D)", "value": "0.474 (0.05) Fluorescence Units"},
      {"measurement": "PLD Activity in Ectocervical Cell Fractions [Mean (variance)]", "setting": "PLD; Membrane fraction, WT 1291 infected w/ inhibitor (300 nM wortmannin or 1 μM cytochalasin D)", "value": "0.784 (0.06) Fluorescence Units"},
      {"measurement": "effect on bacterial entry / gonococcal invasion", "setting": "[1]", "value": "prohibited bacterial entry"}
    ]}
  ]
}
